# Assay results published in the supplement of paper PMC12067093, “Discovery and optimisation of a covalent ligand for TRIM25 and its application to targeted protein ubiquitination” (Chemical Science, 2025).
# By UniProt entry, the sequences of proteins in these tests, tags left out. Where a name states a change or a piece, a line headed by the entry shows the natural chain unless it says otherwise.
# UniProt Q8WZA1: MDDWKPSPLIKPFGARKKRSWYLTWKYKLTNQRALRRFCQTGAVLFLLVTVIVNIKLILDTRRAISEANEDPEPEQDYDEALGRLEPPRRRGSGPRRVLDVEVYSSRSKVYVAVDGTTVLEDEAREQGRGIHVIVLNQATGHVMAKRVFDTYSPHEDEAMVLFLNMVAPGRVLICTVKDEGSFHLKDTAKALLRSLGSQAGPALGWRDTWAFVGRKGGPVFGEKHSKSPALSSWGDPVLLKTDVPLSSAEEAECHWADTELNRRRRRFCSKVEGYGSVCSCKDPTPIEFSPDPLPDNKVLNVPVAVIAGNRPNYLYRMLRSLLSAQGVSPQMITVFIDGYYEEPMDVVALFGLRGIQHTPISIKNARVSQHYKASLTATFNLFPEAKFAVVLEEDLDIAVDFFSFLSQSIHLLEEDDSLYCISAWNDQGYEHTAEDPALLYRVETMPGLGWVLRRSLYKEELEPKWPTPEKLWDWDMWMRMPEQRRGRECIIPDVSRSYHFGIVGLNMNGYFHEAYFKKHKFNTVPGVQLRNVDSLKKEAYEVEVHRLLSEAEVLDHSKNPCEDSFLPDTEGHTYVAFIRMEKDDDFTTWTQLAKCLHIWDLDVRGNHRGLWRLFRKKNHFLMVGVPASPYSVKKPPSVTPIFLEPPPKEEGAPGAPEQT
# UniProt Q99575: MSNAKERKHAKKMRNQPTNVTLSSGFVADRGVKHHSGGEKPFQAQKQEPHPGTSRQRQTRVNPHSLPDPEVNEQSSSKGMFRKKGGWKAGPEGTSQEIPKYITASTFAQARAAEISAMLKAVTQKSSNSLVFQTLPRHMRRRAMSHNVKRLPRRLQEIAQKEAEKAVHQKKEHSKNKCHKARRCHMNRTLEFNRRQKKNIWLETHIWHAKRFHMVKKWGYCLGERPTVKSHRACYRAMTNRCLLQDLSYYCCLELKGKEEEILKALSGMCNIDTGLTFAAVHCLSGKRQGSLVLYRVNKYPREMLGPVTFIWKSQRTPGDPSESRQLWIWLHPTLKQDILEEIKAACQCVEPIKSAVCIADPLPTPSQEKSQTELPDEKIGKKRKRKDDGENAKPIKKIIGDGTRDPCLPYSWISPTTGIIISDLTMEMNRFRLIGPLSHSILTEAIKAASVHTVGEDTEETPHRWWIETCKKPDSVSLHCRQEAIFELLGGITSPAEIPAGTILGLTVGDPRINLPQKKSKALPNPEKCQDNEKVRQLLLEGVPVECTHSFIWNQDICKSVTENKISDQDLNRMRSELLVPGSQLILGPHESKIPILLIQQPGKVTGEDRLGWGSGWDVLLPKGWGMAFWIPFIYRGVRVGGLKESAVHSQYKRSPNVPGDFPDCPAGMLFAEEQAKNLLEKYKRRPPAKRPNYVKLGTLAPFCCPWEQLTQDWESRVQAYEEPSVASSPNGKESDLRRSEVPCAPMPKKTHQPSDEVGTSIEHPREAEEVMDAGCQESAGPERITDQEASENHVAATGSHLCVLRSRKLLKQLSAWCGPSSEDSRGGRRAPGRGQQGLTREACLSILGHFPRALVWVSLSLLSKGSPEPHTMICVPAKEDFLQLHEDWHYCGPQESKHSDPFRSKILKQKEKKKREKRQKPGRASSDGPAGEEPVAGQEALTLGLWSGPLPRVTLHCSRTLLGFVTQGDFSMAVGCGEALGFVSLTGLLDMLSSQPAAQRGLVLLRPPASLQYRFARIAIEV
# UniProt Q9NVU0: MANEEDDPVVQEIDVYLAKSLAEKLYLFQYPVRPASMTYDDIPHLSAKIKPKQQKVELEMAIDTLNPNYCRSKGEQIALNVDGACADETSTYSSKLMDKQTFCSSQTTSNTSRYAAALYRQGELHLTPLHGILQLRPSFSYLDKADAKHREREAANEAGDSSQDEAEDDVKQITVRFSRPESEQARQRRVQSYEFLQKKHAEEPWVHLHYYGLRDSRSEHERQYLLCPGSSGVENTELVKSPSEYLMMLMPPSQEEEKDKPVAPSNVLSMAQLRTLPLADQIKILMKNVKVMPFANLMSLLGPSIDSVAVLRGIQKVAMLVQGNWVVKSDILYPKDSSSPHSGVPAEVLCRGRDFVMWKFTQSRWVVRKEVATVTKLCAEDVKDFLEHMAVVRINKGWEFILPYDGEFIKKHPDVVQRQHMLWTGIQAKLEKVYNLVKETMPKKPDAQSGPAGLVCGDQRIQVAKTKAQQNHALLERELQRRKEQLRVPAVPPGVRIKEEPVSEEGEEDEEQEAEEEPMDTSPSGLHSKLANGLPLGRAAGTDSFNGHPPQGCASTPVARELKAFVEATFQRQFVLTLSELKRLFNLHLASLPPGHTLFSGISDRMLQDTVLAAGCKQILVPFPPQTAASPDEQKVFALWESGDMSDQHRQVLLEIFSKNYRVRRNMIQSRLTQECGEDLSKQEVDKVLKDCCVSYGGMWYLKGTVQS
# UniProt Q15063: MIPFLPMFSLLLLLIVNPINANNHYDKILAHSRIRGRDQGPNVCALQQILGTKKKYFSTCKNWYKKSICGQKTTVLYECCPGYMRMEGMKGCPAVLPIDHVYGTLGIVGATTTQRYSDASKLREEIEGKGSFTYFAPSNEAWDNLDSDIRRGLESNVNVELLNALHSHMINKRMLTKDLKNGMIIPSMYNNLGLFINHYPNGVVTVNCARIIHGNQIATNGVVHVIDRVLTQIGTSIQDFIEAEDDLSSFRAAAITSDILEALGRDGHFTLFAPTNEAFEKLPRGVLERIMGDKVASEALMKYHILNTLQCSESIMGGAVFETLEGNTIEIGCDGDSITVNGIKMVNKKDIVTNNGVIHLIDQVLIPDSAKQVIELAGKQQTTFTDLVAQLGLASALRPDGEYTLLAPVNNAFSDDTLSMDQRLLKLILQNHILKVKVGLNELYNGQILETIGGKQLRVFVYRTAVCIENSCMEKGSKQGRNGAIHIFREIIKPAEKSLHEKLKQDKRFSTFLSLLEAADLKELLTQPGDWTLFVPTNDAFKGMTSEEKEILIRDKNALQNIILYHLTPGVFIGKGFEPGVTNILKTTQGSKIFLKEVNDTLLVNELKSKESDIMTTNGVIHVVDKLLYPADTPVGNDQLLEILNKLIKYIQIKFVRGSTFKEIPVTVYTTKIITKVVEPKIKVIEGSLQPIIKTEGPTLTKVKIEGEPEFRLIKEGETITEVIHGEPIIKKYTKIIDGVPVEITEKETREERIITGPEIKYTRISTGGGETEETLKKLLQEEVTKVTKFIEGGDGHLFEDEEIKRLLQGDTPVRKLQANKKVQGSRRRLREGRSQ
# UniProt P28340: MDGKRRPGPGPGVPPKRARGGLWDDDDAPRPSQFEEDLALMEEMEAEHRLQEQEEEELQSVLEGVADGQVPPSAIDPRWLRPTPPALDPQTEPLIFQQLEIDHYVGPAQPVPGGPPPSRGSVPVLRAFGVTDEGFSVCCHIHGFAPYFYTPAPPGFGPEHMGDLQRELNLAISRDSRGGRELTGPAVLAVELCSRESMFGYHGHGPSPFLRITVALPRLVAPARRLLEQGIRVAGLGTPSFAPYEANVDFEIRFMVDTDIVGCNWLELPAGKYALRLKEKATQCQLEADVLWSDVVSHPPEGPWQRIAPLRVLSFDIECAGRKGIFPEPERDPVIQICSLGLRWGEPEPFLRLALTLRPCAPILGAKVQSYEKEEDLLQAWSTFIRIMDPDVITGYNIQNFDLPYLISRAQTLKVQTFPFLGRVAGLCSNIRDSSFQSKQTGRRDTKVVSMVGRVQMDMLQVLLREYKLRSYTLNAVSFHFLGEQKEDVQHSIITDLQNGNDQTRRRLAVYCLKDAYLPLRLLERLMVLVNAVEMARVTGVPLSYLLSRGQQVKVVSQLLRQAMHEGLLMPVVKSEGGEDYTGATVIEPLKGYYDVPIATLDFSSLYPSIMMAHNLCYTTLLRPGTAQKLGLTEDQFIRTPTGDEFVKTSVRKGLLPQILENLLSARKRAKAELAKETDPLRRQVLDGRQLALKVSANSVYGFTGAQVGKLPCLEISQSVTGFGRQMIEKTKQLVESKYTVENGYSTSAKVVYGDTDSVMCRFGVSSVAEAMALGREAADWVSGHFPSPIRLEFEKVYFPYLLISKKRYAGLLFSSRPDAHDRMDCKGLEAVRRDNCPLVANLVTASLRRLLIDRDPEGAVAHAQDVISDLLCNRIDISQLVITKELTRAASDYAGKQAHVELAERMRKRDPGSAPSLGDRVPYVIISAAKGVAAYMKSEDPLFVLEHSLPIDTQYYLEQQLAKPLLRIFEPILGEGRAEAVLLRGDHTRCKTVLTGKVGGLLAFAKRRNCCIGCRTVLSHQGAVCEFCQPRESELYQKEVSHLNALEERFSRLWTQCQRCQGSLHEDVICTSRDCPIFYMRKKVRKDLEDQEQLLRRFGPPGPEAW
# UniProt Q13427: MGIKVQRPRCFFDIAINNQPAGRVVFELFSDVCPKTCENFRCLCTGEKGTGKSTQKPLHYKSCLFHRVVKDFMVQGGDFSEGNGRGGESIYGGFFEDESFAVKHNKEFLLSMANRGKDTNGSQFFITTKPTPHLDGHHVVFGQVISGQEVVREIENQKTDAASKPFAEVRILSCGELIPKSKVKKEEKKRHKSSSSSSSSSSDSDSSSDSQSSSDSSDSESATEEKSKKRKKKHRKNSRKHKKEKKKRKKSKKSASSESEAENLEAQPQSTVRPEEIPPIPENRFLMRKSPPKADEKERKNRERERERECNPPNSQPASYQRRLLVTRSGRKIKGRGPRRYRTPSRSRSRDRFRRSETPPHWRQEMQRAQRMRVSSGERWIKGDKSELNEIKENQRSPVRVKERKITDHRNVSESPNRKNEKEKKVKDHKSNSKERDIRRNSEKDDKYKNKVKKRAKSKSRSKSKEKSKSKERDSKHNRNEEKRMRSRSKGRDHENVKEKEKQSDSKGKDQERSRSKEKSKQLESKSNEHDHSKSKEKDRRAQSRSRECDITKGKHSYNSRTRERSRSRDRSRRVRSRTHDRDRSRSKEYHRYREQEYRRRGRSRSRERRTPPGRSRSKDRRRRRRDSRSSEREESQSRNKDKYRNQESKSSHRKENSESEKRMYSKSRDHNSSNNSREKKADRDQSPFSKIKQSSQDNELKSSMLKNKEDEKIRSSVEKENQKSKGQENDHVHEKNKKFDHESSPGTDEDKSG
# UniProt P16435: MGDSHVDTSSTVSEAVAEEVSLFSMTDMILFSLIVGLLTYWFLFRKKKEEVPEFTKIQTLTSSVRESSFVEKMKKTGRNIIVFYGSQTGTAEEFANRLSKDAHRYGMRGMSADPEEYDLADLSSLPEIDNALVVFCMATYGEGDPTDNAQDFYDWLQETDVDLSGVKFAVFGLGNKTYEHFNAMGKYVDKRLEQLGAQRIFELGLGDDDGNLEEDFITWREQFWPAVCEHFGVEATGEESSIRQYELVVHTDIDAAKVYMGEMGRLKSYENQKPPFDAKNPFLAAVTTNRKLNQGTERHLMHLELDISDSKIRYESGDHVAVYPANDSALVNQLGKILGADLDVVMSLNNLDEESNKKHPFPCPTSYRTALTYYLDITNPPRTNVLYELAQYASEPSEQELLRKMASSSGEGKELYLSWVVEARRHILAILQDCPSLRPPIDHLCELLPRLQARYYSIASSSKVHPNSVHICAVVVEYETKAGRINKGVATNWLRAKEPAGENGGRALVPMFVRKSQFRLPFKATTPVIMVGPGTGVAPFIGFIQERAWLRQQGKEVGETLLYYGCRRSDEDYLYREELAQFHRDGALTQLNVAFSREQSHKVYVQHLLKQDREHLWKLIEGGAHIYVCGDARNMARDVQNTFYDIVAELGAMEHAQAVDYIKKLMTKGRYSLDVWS
# UniProt O75817: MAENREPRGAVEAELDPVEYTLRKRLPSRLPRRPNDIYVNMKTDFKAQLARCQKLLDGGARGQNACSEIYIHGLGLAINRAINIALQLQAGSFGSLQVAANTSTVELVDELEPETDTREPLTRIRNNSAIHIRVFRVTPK
# UniProt P0DPB6, whole entry, looked up: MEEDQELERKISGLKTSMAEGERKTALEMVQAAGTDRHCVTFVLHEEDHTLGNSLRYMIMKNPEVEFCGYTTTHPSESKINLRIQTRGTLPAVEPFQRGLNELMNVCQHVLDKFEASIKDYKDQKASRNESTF
# UniProt Q9BY77: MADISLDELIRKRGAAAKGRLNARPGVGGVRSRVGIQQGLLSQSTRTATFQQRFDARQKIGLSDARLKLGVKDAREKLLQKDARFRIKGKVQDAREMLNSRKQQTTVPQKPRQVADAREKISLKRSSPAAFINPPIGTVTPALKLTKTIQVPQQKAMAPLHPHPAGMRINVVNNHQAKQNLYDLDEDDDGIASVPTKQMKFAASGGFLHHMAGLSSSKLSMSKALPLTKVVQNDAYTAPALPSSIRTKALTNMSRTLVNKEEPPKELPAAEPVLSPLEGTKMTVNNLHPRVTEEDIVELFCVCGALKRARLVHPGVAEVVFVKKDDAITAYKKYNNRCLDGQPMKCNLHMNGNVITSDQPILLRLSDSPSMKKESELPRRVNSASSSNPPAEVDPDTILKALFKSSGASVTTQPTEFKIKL
# The list shows a part of the results.
# Compound: Cc1cc(ccc1-c1ccccc1)C(=O)N1CCCN(CC1)C(=O)CCl [compound 10]
# Test: probe-labelled cysteine peptide fold change vs DMSO (competition) (log2 fold change); higher = less target engagement (more negative = stronger competition)
# Settings: THP-1, incubation time: 4 h
# 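Also: competitive profiling in live THP-1 cells: cysteine peptides tagged with an iodoacetamide desthiobiotin (IA-DTB) probe, intensity after compound treatment relative to DMSO-treated cells.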
Target,probe-labelled cysteine peptide fold change (10 µM),probe-labelled cysteine peptide fold change (50 µM)
PPAT_Q06203_207_DPYGNRPLCIGR (UniProt Q06203),0.124,0.161
POLG2_Q9UHN1_73_SHAELEGNGEHPEAPGSGEGSEALLEICQR (UniProt Q9UHN1),0.0892,0.254
POLR2B_P30876_1093_DCQIAHGAAQFLR (UniProt P30876),-0.149,-0.303
POLR2H_P52434_30_LHCESESFK (UniProt P52434),0.126,0.177
POLD3_Q15054_74_KENSGAQLHVTYLVSGSLIQNGHSCHK (UniProt Q15054),-0.272,0.321
POLE_Q07864_1935_IHCGLQDSQK (UniProt Q07864),-0.268,-0.334
POLE_Q07864_2148_LVDVGEFSEEAQFRDPCR (UniProt Q07864),-0.167,-0.403
POLR1A_O95602_1289_VCLGEVLQK (UniProt O95602),0.0229,0.168
POMGNT1_Q8WZA1_254_TDVPLSSAEEAECHWADTELNRR (UniProt Q8WZA1),0.0339,-0.0811
POP1_Q99575_706_LGTLAPFCCPWEQLTQDWESR (UniProt Q99575),-0.246,-0.686
POLR3E_Q9NVU0_103_QTFCSSQTTSNTSR (UniProt Q9NVU0),0.0155,0.0106
POSTN_Q15063_80_TTVLYECCPGYMR (UniProt Q15063),-0.264,-0.302
POLA1_P09884_1393_SLYTQLCFYR (UniProt P09884),0.158,-0.14
POP1_Q99575_221_WGYCLGERPTVK (UniProt Q99575),-0.168,-0.00496
PPA2_Q9H2U2_180_ILSCGEVIHVK (UniProt Q9H2U2),-0.106,-0.00292
POLR3A_O14802_1174_VKPGDVAVHGEAVVCVTPR (UniProt O14802),0.148,0.185
POGZ_Q7Z3K3_621+624_HLLCPYCLK (UniProt Q7Z3K3),-0.0282,-0.0733
POLR2D_O15514_99+104_FELACLANLCPETAEESK (UniProt O15514),0.0212,0.12
POLD1_P28340_319_VLSFDIECAGRK (UniProt P28340),-0.084,-0.546
POP1_Q99575_777_EAEEVMDAGCQESAGPER (UniProt Q99575),0.013,-0.0568
POLR1E_Q9GZS1_276_CIWFLDTLIK (UniProt Q9GZS1),0.0886,-0.0612
POLR2B_P30876_892_RDCSTFLR (UniProt P30876),-0.18,0.00776

Target,probe-labelled cysteine peptide fold change (10 µM),probe-labelled cysteine peptide fold change (50 µM)
POGZ_Q7Z3K3_532_HHVELDQQNGEVDGHTICQHCYR (UniProt Q7Z3K3),0.0999,0.264
PPIG_Q13427_549_ECDITK (UniProt Q13427),0.0707,0.0987
POFUT1_Q9H488_249_NACAMLK (UniProt Q9H488),-0.308,-0.164
POM121C_A8CG34_245_MVCSPVTVR (UniProt A8CG34),0.0592,-0.232
POLR3E_Q9NVU0_616_MLQDTVLAAGCK (UniProt Q9NVU0),0.0878,0.0125
POLR2B_P30876_221_YAYTGECR (UniProt P30876),-0.0276,-0.0465
POLD1_P28340_713_LPCLEISQSVTGFGR (UniProt P28340),–,-0.108
PPIE_Q9UNP9_176_CLCTHEK (UniProt Q9UNP9),0.0495,-0.0221
PPA1_Q15181_113+114_HTGCCGDNDPIDVCEIGSK (UniProt Q15181),-0.0356,0.452
POLR2A_P24928_109_CVCFFCSK (UniProt P24928),-0.812,-0.13
PON2_Q15165_283_VLELDTLVDNLSIDPSSGDIWVGCHPNGQK (UniProt Q15165),0.139,0.16
POLR3B_Q9NW08_1054_LGEMERDCLIGYGASMLLLER (UniProt Q9NW08),-0.0449,-0.0847
POLD1_P28340_512_LAVYCLK (UniProt P28340),-0.0324,0.154
POLR1A_O95602_1332_CLRPEDILR (UniProt O95602),-0.466,0.569
POLR2A_P24928_1050_STLCSR (UniProt P24928),-0.0683,-0.0587
PPIG_Q13427_310_ERECNPPNSQPASYQR (UniProt Q13427),-0.167,-0.3
PPID_Q08752_71_GCPFHR (UniProt Q08752),-0.189,-0.565
POLA2_Q14181_590_QSPCIAVQVVR (UniProt Q14181),0.263,-0.19
POR_P16435_434_HILAILQDCPSLRPPIDHLCELLPR (UniProt P16435),0.0553,0.0875
POGZ_Q7Z3K3_1230_GMLVMDCHR (UniProt Q7Z3K3),-0.055,-0.17
POLR1B_Q9H9Y6_944_SAALHGLCHDATPFIFSEENSALEYFGEMLK (UniProt Q9H9Y6),0.148,0.418
PPA1_Q15181_270+274_AIVDALPPPCESACTVPTDVDK (UniProt Q15181),-0.574,-0.594

Target,probe-labelled cysteine peptide fold change (10 µM),probe-labelled cysteine peptide fold change (50 µM)
POP1_Q99575_471_WWIETCK (UniProt Q99575),-0.0637,-0.11
POLR2E_P19388_21_TIMQLCHDR (UniProt P19388),0.284,0.262
POLD1_P28340_761_VVYGDTDSVMCR (UniProt P28340),-0.0809,-0.0891
POLRMT_O00411_925_ASDPAAYVSHLPVHQDGSCNGLQHYAALGR (UniProt O00411),-0.143,-0.16
PPIG_Q13427_63_SCLFHR (UniProt Q13427),0.0394,-0.418
POLR2A_P24928_1407_HLALLCDTMTCR (UniProt P24928),0.0274,0.0822
POP1_Q99575_745_SEVPCAPMPK (UniProt Q99575),-0.487,-0.414
POMGNT1_Q8WZA1_562_NPCEDSFLPDTEGHTYVAFIR (UniProt Q8WZA1),-0.268,0.11
POP7_O75817_66_GQNACSEIYIHGLGLAINR (UniProt O75817),-0.00332,-0.0127
PPAN_Q9NQ55_73_DCVAVAGPLGVTHFLILSK (UniProt Q9NQ55),-0.357,0.496
POLD1_P28340_1026+1029_TVLSHQGAVCEFCQPR (UniProt P28340),-0.235,-0.439
POLA2_Q14181_556_DVLGCVCVNPGR (UniProt Q14181),0.00896,0.156
POLR1D_P0DPB6_107_GLNELMNVCQHVLDK (UniProt P0DPB6),0.125,0.15
PPA1_Q15181_123_HTGCCGDNDPIDVCEIGSK (UniProt Q15181),-0.336,-0.0139
PPID_Q08752_275+282_LQPIALSCVLNIGACK (UniProt Q08752),0.649,0.0405
POLA2_Q14181_392_HEQVENCLLTSPFEDIFK (UniProt Q14181),0.37,-0.0478
POLM_Q9NP87_222_VVQELLEHGVCEEVER (UniProt Q9NP87),0.155,0.0162
PPIB_P23284_202_DVIIADCGK (UniProt P23284),-0.227,0.178
POGZ_Q7Z3K3_987_VVLFALCCNTEQAAEHFR (UniProt Q7Z3K3),0.104,-0.122
POLR1D_P0DPB6_68_NPEVEFCGYTTTHPSESK (UniProt P0DPB6),0.12,-0.0111
POLR2A_P24928_1430_CSFEETVDVLMEAAAHGESDPMK (UniProt P24928),-0.0558,-0.211
POLR2B_P30876_622_ICRPLLIVEK (UniProt P30876),-0.0725,-0.00415

Target,probe-labelled cysteine peptide fold change (10 µM),probe-labelled cysteine peptide fold change (50 µM)
POLR1E_Q9GZS1_14_WQYCGAPDGSQR (UniProt Q9GZS1),-0.143,0.224
POLD1_P28340_873_DPEGAVAHAQDVISDLLCNR (UniProt P28340),-0.126,0.17
POLR2A_P24928_184_GHGGCGR (UniProt P24928),-0.0171,-0.102
PPIL1_Q9Y3C6_133_VCQGIGMVNR (UniProt Q9Y3C6),0.145,0.0313
POLD2_P49005_83_KLCELQPEEK (UniProt P49005),-0.27,-0.596
POLR1B_Q9H9Y6_214_GPGYTQYGVSMHCVR (UniProt Q9H9Y6),0.157,0.246
POLK_Q9UBT6_161_RLCPQLIIVPPNFDK (UniProt Q9UBT6),0.148,0.283
POSTN_Q15063_44_DQGPNVCALQQILGTKK (UniProt Q15063),-0.609,-0.645
PPIL4_Q8WUA2_294_EEDCEK (UniProt Q8WUA2),-0.0643,0.126
POLR2I_P36954_42+52_NCDYQQEADNSCIYVNK (UniProt P36954),-0.000456,-0.38
POLR1B_Q9H9Y6_1101_KYNCTLCSR (UniProt Q9H9Y6),0.0656,-0.378
POR_P16435_445_HILAILQDCPSLRPPIDHLCELLPR (UniProt P16435),-0.0429,0.0829
POLDIP3_Q9BY77_346_CNLHMNGNVITSDQPILLR (UniProt Q9BY77),-0.0334,-0.0555
POMGNT1_Q8WZA1_254_TDVPLSSAEEAECHWADTELNR (UniProt Q8WZA1),-0.182,-0.0484
POLG2_Q9UHN1_196_LRENLLHGALEHYVNCLDLVNK (UniProt Q9UHN1),0.0512,0.139
POLDIP3_Q9BY77_301+303_VTEEDIVELFCVCGALK (UniProt Q9BY77),0.0436,-0.521
POLR1A_O95602_968_FLTGIKPPEFFFHCMAGR (UniProt O95602),0.0135,0.09
POLR2J_P52435_31_VPNACLFTINK (UniProt P52435),-0.0533,-0.0404
POLR1E_Q9GZS1_138_MDSCIEAFGTTK (UniProt Q9GZS1),-0.325,-0.495
